US10350281B2 (priority 2012, dated 2019)
At least one structure is not confirmed: it was looked up by name or label, or the drawing left a doubt.

Tested on: E. coli, Streptococcus sp. and Proteus sp. isolated from the xenic culture
Test: Antibiotic susceptibility tests (antibiotic discs) with bacterial strains isolated from the xenic culture
Settings: strains isolated from original xenic culture (E. coli, Streptococcus sp., Proteus sp.)

CO[C@H]1/C=C/O[C@@]2(C)Oc3c(C)c(O)c4c(O)c(c(/C=N/N5CCN(C)CC5)c(O)c4c3C2=O)NC(=O)/C(C)=C\C=C\[C@H](C)[C@H](O)[C@@H](C)[C@@H](O)[C@@H](C)[C@H](OC(C)=O)[C@@H]1C [rifampicin]
susceptibility tests of the bacterial strains: resistant to most antibiotics, except meropenem, neomycin and rifampicin
